Measured values reported in paper doi:10.1101/595702.
No constants are given. Whether binding was seen depends on the method and setting. In cells and extracts the contact can be indirect. Some binding calls cover weakened binding; strength is not graded here. Sequences can lack the tags named with a protein.

Protein sequences, listed by entry. Tags and fused reporters are not part of them.
UniProt Q15154: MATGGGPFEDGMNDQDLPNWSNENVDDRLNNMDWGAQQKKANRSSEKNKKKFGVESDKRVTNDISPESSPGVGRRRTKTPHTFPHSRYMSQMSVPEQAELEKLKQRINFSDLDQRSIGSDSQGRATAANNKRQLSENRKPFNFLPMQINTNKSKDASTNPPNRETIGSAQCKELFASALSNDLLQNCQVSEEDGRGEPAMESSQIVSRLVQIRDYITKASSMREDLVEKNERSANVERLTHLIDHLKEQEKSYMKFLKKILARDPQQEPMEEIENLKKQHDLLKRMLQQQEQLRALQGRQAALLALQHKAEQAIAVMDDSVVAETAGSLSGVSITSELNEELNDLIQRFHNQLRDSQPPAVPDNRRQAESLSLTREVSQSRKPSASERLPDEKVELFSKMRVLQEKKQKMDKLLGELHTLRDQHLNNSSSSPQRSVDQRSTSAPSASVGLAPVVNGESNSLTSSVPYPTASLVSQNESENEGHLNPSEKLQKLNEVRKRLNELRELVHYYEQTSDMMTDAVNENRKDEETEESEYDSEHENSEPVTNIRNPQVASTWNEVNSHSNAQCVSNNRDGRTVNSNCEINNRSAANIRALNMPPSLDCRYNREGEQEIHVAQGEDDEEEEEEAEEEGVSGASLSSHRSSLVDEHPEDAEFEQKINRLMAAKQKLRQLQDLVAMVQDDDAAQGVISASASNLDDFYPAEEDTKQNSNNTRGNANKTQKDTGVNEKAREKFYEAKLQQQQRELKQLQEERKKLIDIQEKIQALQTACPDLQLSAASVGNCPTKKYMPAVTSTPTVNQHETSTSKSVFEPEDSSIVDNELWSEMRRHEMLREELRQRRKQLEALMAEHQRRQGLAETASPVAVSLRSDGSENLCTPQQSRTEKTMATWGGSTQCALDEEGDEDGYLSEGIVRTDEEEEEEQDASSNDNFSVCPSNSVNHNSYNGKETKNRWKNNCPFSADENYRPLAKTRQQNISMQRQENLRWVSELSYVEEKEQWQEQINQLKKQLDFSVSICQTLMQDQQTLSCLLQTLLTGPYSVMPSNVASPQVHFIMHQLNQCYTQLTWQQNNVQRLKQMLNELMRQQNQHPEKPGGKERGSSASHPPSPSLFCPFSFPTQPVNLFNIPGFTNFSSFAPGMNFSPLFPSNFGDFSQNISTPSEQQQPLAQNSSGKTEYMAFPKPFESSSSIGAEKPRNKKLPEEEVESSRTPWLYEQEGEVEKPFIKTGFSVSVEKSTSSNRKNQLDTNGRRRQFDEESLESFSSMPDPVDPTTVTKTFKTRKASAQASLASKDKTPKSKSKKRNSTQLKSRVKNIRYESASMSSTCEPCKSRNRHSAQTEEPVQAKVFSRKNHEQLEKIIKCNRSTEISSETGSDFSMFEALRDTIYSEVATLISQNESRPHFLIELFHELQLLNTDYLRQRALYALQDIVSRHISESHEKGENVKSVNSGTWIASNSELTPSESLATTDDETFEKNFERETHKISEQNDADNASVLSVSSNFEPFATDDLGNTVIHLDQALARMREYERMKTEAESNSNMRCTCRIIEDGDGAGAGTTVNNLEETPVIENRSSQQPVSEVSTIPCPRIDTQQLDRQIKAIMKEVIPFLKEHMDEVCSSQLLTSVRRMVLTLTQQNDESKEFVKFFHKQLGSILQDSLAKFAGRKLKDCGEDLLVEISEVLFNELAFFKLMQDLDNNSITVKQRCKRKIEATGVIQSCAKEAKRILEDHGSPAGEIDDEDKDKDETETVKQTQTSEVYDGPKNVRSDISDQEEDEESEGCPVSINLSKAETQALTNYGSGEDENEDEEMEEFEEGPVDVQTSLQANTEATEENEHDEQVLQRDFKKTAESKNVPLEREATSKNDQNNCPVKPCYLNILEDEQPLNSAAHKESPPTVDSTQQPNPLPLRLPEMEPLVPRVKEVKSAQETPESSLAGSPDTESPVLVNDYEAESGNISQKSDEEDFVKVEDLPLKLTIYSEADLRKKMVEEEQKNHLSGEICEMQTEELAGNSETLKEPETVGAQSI

Assays:
[1] = target: T1, TCHP-FLAG (FLAG at the C-terminus) (human) (UniProt Q9BT92); experiment: co-IP
T1 sequence: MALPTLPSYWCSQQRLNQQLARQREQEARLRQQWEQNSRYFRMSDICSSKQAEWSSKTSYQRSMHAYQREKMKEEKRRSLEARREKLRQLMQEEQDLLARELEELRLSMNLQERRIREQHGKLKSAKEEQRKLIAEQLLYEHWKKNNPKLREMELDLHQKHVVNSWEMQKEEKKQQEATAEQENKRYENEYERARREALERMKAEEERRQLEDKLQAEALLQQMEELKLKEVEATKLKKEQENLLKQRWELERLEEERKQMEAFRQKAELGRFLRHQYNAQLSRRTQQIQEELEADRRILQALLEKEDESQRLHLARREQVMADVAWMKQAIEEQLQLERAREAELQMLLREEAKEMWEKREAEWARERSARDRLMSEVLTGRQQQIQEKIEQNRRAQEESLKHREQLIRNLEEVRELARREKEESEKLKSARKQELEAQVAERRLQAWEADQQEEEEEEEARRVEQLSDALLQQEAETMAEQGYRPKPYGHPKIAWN

[2] = target: T2, 3xFLAG-TCHP (FLAG at the N-terminus), full length (human) (UniProt Q9BT92); experiment: co-IP
T2 sequence: T1 sequence

In the case of “PCM1, endogenous in HEK293 cells (from UniProt Q15154 1-2024)”, the binding [1] is reported as “binds” and the binding [2] is reported as “binds”.
